PubChem BioAssay AID1259424, University of Nebraska Medical Center – 2018
This is one part, drawn at random, of about 14,000 deposited reagents. 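Higher correlation or smaller distance means closer resemblance to KSR1 loss; control wells, including KSR1 knockdowns, recur on many plates.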 Reagents against one gene are numbered here. A reagent listed more than once was tested more than once; the source does not tell the runs apart. Reagent sequences are not shown. Not given: the time to read-out.

Test: 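Find knockdowns that reproduce the expression shifts seen after KSR1 loss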 (primary screen)
Cell system: human HCT116 colon cancer cells
Knock-down reagent: siRNA pool against human genes, 50 nM
Detection: 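Six signature mRNAs by branched-DNA multiplex assay, scaled to two housekeeping genes and non-targeting median, log2; matched to mean KSR1 knockdown profile by Pearson correlation and euclidean distance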
Reading the numbers: mean correlation with KSR1 profile and KSR1 correlation: higher = expression change more like KSR1 knockdown; mean distance from KSR1 profile: higher = expression change less like KSR1 knockdown

gene symbol,reagent,mean correlation with KSR1 profile,mean distance from KSR1 profile,"KSR1 correlation, replicate 1","KSR1 correlation, replicate 2","KSR1 correlation, replicate 3"
PLA2G2A (phospholipase A2 group IIA),1,-0.0111,1.87,-0.0703,0.124,-0.294
"PSMD11 (proteasome 26S subunit, non-ATPase 11)",1,-0.263,2.55,-0.0751,-0.401,-0.367
HRH2 (histamine receptor H2),1,0.233,2.6,0.185,0.285,0.204
NUDT12 (nudix hydrolase 12),1,0.479,1.94,0.401,0.368,0.377
DOK1 (docking protein 1),1,0.0143,4.23,0.177,-0.0777,-0.0736
SLCO2A1,1,0.683,1.17,0.771,0.448,0.641
MON1A (MON1 vesicular trafficking associated A),1,0.775,1.78,0.677,0.751,0.86
TSC1 (TSC complex subunit 1),1,-0.432,1.72,-0.304,-0.355,-0.565
DIO2 (iodothyronine deiodinase 2),1,-0.572,4.97,-0.52,-0.567,-0.601
WDR77 (WD repeat domain 77),1,-0.614,1.62,-0.787,-0.7,-0.712
FGFR2 (fibroblast growth factor receptor 2),1,0.196,3.88,0.305,0.0497,0.111
ZNF266 (zinc finger protein 266),1,-0.0373,1.67,0.128,-0.212,0.103
PDX1 (pancreatic and duodenal homeobox 1),1,-0.0809,1.9,0.24,-0.154,0.155
MRPS5 (mitochondrial ribosomal protein S5),1,0.586,0.893,0.0755,0.483,0.698
DDI2 (DDI proteasomal shuttling factor 2),1,0.431,1.24,0.451,0.445,-0.0673
MTCP1 (mature T cell proliferation 1),1,-0.576,2.78,-0.77,-0.694,-0.131
CDX1 (caudal type homeobox 1),1,0.291,2.79,0.401,0.402,0.238
TAT (tyrosine aminotransferase),1,0.471,1.9,0.307,0.498,0.471
FCRL3 (Fc receptor like 3),1,-0.771,1.96,-0.776,-0.66,-0.732
IGSF3 (immunoglobulin superfamily member 3),1,0.163,1.97,-0.153,0.017,0.612
BANF1 (barrier to autointegration nuclear assembly factor 1),1,-0.353,3.42,-0.288,-0.307,-0.497
CA7 (carbonic anhydrase 7),1,0.116,3.27,-0.214,0.273,0.32
HSP90B1 (heat shock protein 90 beta family member 1),1,0.367,2.92,0.583,0.248,0.581
MSH3 (mutS homolog 3),1,-0.467,2.16,-0.911,-0.629,-0.0328
CEP44 (centrosomal protein 44),1,0.592,1.24,0.317,0.693,0.605
RACGAP1 (Rac GTPase activating protein 1),1,-0.166,1.93,-0.375,-0.4,-0.257
MTRR,1,-0.173,2,-0.346,-0.163,-0.161
BMP7 (bone morphogenetic protein 7),1,-0.182,2.43,-0.0478,-0.265,-0.239
CAMSAP3,1,-0.429,2.75,-0.161,-0.632,-0.445
FAH (fumarylacetoacetate hydrolase),1,0.124,3.48,0.316,0.364,0.218
KRT36 (keratin 36),1,-0.396,1.45,-0.0647,-0.604,-0.19
U2AF2 (U2 small nuclear RNA auxiliary factor 2),1,-0.244,2.95,-0.232,-0.0856,-0.398
ATRN (attractin),1,-0.121,2.11,-0.013,-0.174,-0.0618
MRPS23 (mitochondrial ribosomal protein S23),1,0.198,2.48,0.338,0.444,0.0574
CDX2 (caudal type homeobox 2),1,0.394,1.52,0.278,0.718,0.402
POLR3F (RNA polymerase III subunit F),1,-0.539,3.63,-0.439,-0.477,-0.575
MAP1LC3B (microtubule associated protein 1 light chain 3 beta),1,-0.016,2.21,-0.172,-0.179,-0.162
ORAI2 (ORAI calcium release-activated calcium modulator 2),1,0.652,1.11,0.432,0.668,0.6
OR1F1 (olfactory receptor family 1 subfamily F member 1),1,0.757,1.21,0.814,0.91,0.169
KMT2A (lysine methyltransferase 2A),1,0.517,1.58,0.603,0.721,0.26
KMT2A (lysine methyltransferase 2A),2,0.204,1.7,0.317,0.283,0.0659
UTP14A (UTP14A small subunit processome component),1,-0.554,2.58,-0.321,-0.741,-0.54
FASTKD3 (FASTK mitochondrial RNA regulator 3),1,-0.779,2.5,-0.409,-0.947,-0.296
CCSER2 (coiled-coil serine rich protein 2),1,0.0888,1.99,-0.208,0.251,0.269
"ALG3 (ALG3 alpha-1,3- mannosyltransferase)",1,0.0635,3.24,0.125,0.194,-0.0343
WNT2B (Wnt family member 2B),1,-0.0722,2.8,0.0776,-0.154,-0.252
SLC13A3,1,-0.447,2.12,-0.592,-0.45,-0.334
MSLN (mesothelin),1,-0.133,1.8,-0.037,-0.0866,-0.396
CMAS (cytidine monophosphate N-acetylneuraminic acid synthetase),1,0.118,2.43,-0.161,0.495,0.343
CDKN1A (cyclin dependent kinase inhibitor 1A),1,0.946,0.863,0.93,0.769,0.646
CASP4 (caspase 4),1,-0.651,3.62,-0.659,-0.572,-0.773
TULP4 (TUB like protein 4),1,0.085,1.89,0.0866,0.0236,0.127
TNFSF13B (TNF superfamily member 13b),1,0.72,1.19,0.816,0.496,0.646
NGEF (neuronal guanine nucleotide exchange factor),1,0.0675,3.03,0.338,-0.128,-0.0651
MUS81 (MUS81 structure-specific endonuclease subunit),1,0.745,2.69,0.581,0.765,0.72
ANKEF1 (ankyrin repeat and EF-hand domain containing 1),1,0.64,1.52,0.757,0.476,0.721
KLRC1 (killer cell lectin like receptor C1),1,-0.254,2.39,-0.308,-0.476,-0.0969
TAOK2 (TAO kinase 2),1,-0.254,2.08,-0.0372,-0.301,-0.376
TAOK2 (TAO kinase 2),1,-0.143,2.21,0.23,-0.271,-0.0541
RMND5B (required for meiotic nuclear division 5 homolog B),1,-0.41,2.41,-0.502,-0.324,-0.137
PLA2G7 (phospholipase A2 group VII),1,0.268,1.25,-0.176,0.499,0.283
TRPS1 (transcriptional repressor GATA binding 1),1,0.225,2.86,0.0747,0.0199,0.663
ADAMTS14 (ADAM metallopeptidase with thrombospondin type 1 motif 14),1,-0.533,7.6,-0.0358,-0.024,-0.289

8 entries from above in another layout.
| gene symbol | reagent | mean correlation with KSR1 profile | mean distance from KSR1 profile | KSR1 correlation, replicate 1 | KSR1 correlation, replicate 2 | KSR1 correlation, replicate 3 |
| --- | --- | --- | --- | --- | --- | --- |
| CASP4 (caspase 4) | 1 | -0.651 | 3.62 | -0.659 | -0.572 | -0.773 |
| TULP4 (TUB like protein 4) | 1 | 0.085 | 1.89 | 0.0866 | 0.0236 | 0.127 |
| TNFSF13B (TNF superfamily member 13b) | 1 | 0.72 | 1.19 | 0.816 | 0.496 | 0.646 |
| NGEF (neuronal guanine nucleotide exchange factor) | 1 | 0.0675 | 3.03 | 0.338 | -0.128 | -0.0651 |
| MUS81 (MUS81 structure-specific endonuclease subunit) | 1 | 0.745 | 2.69 | 0.581 | 0.765 | 0.72 |
| ANKEF1 (ankyrin repeat and EF-hand domain containing 1) | 1 | 0.64 | 1.52 | 0.757 | 0.476 | 0.721 |
| KLRC1 (killer cell lectin like receptor C1) | 1 | -0.254 | 2.39 | -0.308 | -0.476 | -0.0969 |
| TAOK2 (TAO kinase 2) | 1 | -0.254 | 2.08 | -0.0372 | -0.301 | -0.376 |
